In PubChem BioAssay AID330 (DTP/NCI, 2004):
The list shows only some results of the screen, not a fair sample: it gathers tests that were run many times, whatever their T/C, doses with no T/C, and many T/C values between a quarter and a half above the control. Other doses and runs of a compound stand elsewhere. T/C: endpoint of the treated group in % of that of the vehicle group. Some entries give survivors of the animals treated and no T/C: the source files T/C as zero there, which appears to mark a toxic dose or a test without result, not a measured value. Some survivor counts are full or nearly so, which does not show that the dose was tolerated: survival well below the control is almost never listed, so the zero probably covers shortened survival too. Survivors were counted at the toxicity check, usually on the fifth day, unless a day is given; later deaths do not show. Schedule codes are those of the source, read here as Q, the interval in days (D) or hours (H), X, the number of doses. For survival time, the PubChem record calls one and a half times the control and up active, and a quarter to a half above the control has no call in these data; cut-offs in other NCI protocols can differ. Some entries were tested several times; the values are given in rising order. Some T/C values carry the count of animals alive at the toxicity check (mostly the fifth day); without a count, all were alive then.

System: P388 leukemia ip, CD2F1 mice, survival T/C
Assay: NCI In Vivo Anticancer Drug Screen. Data for tumor model P388 Leukemia (intraperitoneal) in CD2F1 (CDF1) mice
Settings: T/C endpoint: median survival time, higher T/C = longer survival
[1] = dose: 240.0 mg/kg/injection, schedule: Q01DX005 (ip), vehicle: saline with Tween-80
[2] = dose: 1000.0 mg/kg/injection, schedule: Q01DX005 (ip), vehicle: water

N#CC(=O)Nc1ccc(Cl)cc1
survivor count (dose: 30.0 mg/kg/injection, schedule: Q01DX005 (ip), vehicle: saline with Tween-80): 4 of 6
survivor count (dose: 60.0 mg/kg/injection, schedule: Q01DX005 (ip), vehicle: saline with Tween-80): 0 of 6
survivor count (dose: 120.0 mg/kg/injection, schedule: Q01DX005 (ip), vehicle: saline with Tween-80): 0 of 6
survivor count [1]: 0 of 6

C[CH2][Pb]([CH2]C)([CH2]C)[O]C(=O)COc1ccccc1
T/C (dose: 12.0 mg/kg/injection, schedule: Q04DX003 (ip), vehicle: Klucel (hydroxypropylcellulose) (HPC)): 126 % of control
survivor count (dose: 24.0 mg/kg/injection, schedule: Q04DX003 (ip), vehicle: Klucel (hydroxypropylcellulose) (HPC)): 3 of 6

COc1cc2c(cc1OC)-c1c(C)c3ccc(OC)c(OC)c3c[n+]1CC2
survivor count (dose: 50.0 mg/kg/injection, schedule: Q04DX003 (ip), vehicle: distilled water + Tween-80): 0 of 6
survivor count (dose: 100.0 mg/kg/injection, schedule: Q04DX003 (ip), vehicle: distilled water + Tween-80): 0 of 6
survivor count (dose: 200.0 mg/kg/injection, schedule: Q04DX003 (ip), vehicle: distilled water + Tween-80): 0 of 6
survivor count (dose: 400.0 mg/kg/injection, schedule: Q04DX003 (ip), vehicle: distilled water + Tween-80): 0 of 6

CCCCCCCCCCC[CH2][Sn]([CH3])([CH3])[O]C(C)=O
survivor count (dose: 50.0 mg/kg/injection, schedule: Q01DX009 (ip), vehicle: saline): 5 of 6
survivor count (dose: 100.0 mg/kg/injection, schedule: Q01DX009 (ip), vehicle: saline): 4 of 6
survivor count (dose: 200.0 mg/kg/injection, schedule: Q01DX009 (ip), vehicle: saline): 1 of 6

Cc1ccc(S(=O)(=O)F)cc1C(=O)O
survivor count [1]: 3 of 6

O=c1[nH]c2cc(Cl)ccc2nc1/C=C(\O)c1cccc(O)c1
survivor count (dose: 120.0 mg/kg/injection, schedule: Q01DX005 (ip), vehicle: Klucel + Tween-80): 6 of 6
survivor count (dose: 240.0 mg/kg/injection, schedule: Q01DX005 (ip), vehicle: Klucel + Tween-80): 6 of 6

CNC=O
T/C (dose: 197.6 mg/kg/injection, schedule: Q01DX009 (ip), vehicle: saline): 136 % of control
T/C (dose: 296.5 mg/kg/injection, schedule: Q01DX005 (ip), vehicle: saline): 130 % of control
T/C (dose: 296.5 mg/kg/injection, schedule: Q01DX005 (ip), vehicle: water): 126 % of control
T/C (dose: 296.5 mg/kg/injection, schedule: Q01DX005 (iv), vehicle: saline): 133 % of control
T/C (dose: 296.5 mg/kg/injection, schedule: Q01DX005 (oral), vehicle: saline): 132 % of control
T/C (dose: 296.5 mg/kg/injection, schedule: Q01DX009 (ip), vehicle: saline): 148 % of control
T/C (dose: 296.5 mg/kg/injection, schedule: Q01DX009 (oral), vehicle: saline): 147 % of control
T/C (dose: 320.0 mg/kg/injection, schedule: Q01DX005 (ip), vehicle: water): 134 % of control [5 of 6 alive]
T/C (dose: 444.5 mg/kg/injection, schedule: Q01DX005 (ip), vehicle: saline): 138 % of control
T/C (dose: 444.5 mg/kg/injection, schedule: Q01DX005 (ip), vehicle: water): 142 % of control
T/C (dose: 444.5 mg/kg/injection, schedule: Q01DX005 (iv), vehicle: saline): 146 % of control
T/C (dose: 444.5 mg/kg/injection, schedule: Q01DX005 (oral), vehicle: saline): 144 % of control
T/C (dose: 640.0 mg/kg/injection, schedule: Q01DX005 (ip), vehicle: water): 142 and 145 % of control
T/C (dose: 666.7 mg/kg/injection, schedule: Q01DX005 (ip), vehicle: water): 125 % of control
T/C (dose: 666.7 mg/kg/injection, schedule: Q01DX005 (iv), vehicle: saline): 147 % of control
T/C (dose: 666.7 mg/kg/injection, schedule: Q01DX005 (oral), vehicle: saline): 137 % of control
T/C (dose: 1000.0 mg/kg/injection, schedule: Q01DX005 (ip), vehicle: saline): 130 % of control
T/C [2]: 136 % of control
survivor count [2]: 3 of 5
survivor count (dose: 1000.0 mg/kg/injection, schedule: Q01DX009 (ip), vehicle: saline): 10 of 10
T/C (dose: 1280.0 mg/kg/injection, schedule: Q01DX005 (ip), vehicle: water): 143 % of control [5 of 6 alive]
T/C (dose: 1500.0 mg/kg/injection, schedule: Q01DX001 (iv), vehicle: saline): 129 % of control
T/C (dose: 1500.0 mg/kg/injection, schedule: Q01DX001 (oral), vehicle: saline): 128 % of control
survivor count (dose: 1500.0 mg/kg/injection, schedule: Q01DX009 (oral), vehicle: saline): 10 of 10
T/C (dose: 2250.0 mg/kg/injection, schedule: Q01DX001 (oral), vehicle: saline): 138 % of control
